Data as given in PubChem BioAssay AID1224830 (NIAID, 2016).
The deposit covers about 18,000 reagents; this is an unselected part. In the full data, about 2,900 (16%) are marked active. 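Calls are made per well; low scores hint the gene aids the LPS response, high scores that it dampens it.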 Repeated entries: four replicate wells of each siRNA pool.

Screen: 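Host factors that control LPS-induced TNF expression in human macrophages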 (primary screen)
Cells: human THP-1 monocytic leukaemia cells, TNF dual-luciferase reporter clone, PMA-differentiated to macrophage-like cells
Reagents: siRNA pool against human genes, 50 nM
Time to read-out: LPS for 4 h, given about 3 days after siRNA transfection
Treatment: bacterial LPS (TLR4 ligand), 10 ng/ml
Read-out: 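Ratio of firefly to renilla light, scaled to the plate median and expressed as a robust z-score per replicate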
Reading the numbers: TNF reporter robust z-score: higher = stronger TNF reporter response to LPS
Hit rule: 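a well is active when its z-score exceeds 2.8 or falls below -1.5; control wells carry no call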

{"gene":"FKBP14","TNF reporter robust z-score":-0.25,"Call":"inactive"}
{"gene":"FKBP14","TNF reporter robust z-score":2.18,"Call":"inactive"}
{"gene":"FKBP14","TNF reporter robust z-score":0.28,"Call":"inactive"}
{"gene":"FKBP14","TNF reporter robust z-score":2.14,"Call":"inactive"}
{"gene":"ACSS2","TNF reporter robust z-score":0.45,"Call":"inactive"}
{"gene":"ACSS2","TNF reporter robust z-score":0.18,"Call":"inactive"}
{"gene":"ACSS2","TNF reporter robust z-score":0.23,"Call":"inactive"}
{"gene":"ACSS2","TNF reporter robust z-score":0.4,"Call":"inactive"}
{"gene":"PLS3","TNF reporter robust z-score":0.77,"Call":"inactive"}
{"gene":"PLS3","TNF reporter robust z-score":0.36,"Call":"inactive"}
{"gene":"PLS3","TNF reporter robust z-score":0.79,"Call":"inactive"}
{"gene":"PLS3","TNF reporter robust z-score":0.32,"Call":"inactive"}
{"gene":"STMN1","TNF reporter robust z-score":-0.25,"Call":"inactive"}
{"gene":"STMN1","TNF reporter robust z-score":-0.95,"Call":"inactive"}
{"gene":"STMN1","TNF reporter robust z-score":-1.46,"Call":"inactive"}
{"gene":"STMN1","TNF reporter robust z-score":-0.47,"Call":"inactive"}
{"gene":"CNKSR2","TNF reporter robust z-score":-0.22,"Call":"inactive"}
{"gene":"CNKSR2","TNF reporter robust z-score":0.38,"Call":"inactive"}
{"gene":"CNKSR2","TNF reporter robust z-score":-0.38,"Call":"inactive"}
{"gene":"CNKSR2","TNF reporter robust z-score":2.03,"Call":"inactive"}
{"gene":"GTF3C2","TNF reporter robust z-score":0.71,"Call":"inactive"}
{"gene":"GTF3C2","TNF reporter robust z-score":1.73,"Call":"inactive"}
{"gene":"GTF3C2","TNF reporter robust z-score":1.55,"Call":"inactive"}
{"gene":"GTF3C2","TNF reporter robust z-score":0.66,"Call":"inactive"}
{"gene":"RPS29","TNF reporter robust z-score":-0.89,"Call":"inactive"}
{"gene":"RPS29","TNF reporter robust z-score":-0.61,"Call":"inactive"}
{"gene":"RPS29","TNF reporter robust z-score":-0.85,"Call":"inactive"}
{"gene":"RPS29","TNF reporter robust z-score":-0.35,"Call":"inactive"}
{"gene":"TFRC","TNF reporter robust z-score":-0.26,"Call":"inactive"}
{"gene":"TFRC","TNF reporter robust z-score":0.07,"Call":"inactive"}
{"gene":"TFRC","TNF reporter robust z-score":-0.62,"Call":"inactive"}
{"gene":"TFRC","TNF reporter robust z-score":0.7,"Call":"inactive"}

Records above whose gene name starts with S or s (4):
{"gene":"STMN1","TNF reporter robust z-score":-0.25,"Call":"inactive"}
{"gene":"STMN1","TNF reporter robust z-score":-0.95,"Call":"inactive"}
{"gene":"STMN1","TNF reporter robust z-score":-1.46,"Call":"inactive"}
{"gene":"STMN1","TNF reporter robust z-score":-0.47,"Call":"inactive"}

More results follow:
{"gene":"HSD3B1","TNF reporter robust z-score":4.21,"Call":"active"}
{"gene":"HSD3B1","TNF reporter robust z-score":0.42,"Call":"inactive"}
{"gene":"HSD3B1","TNF reporter robust z-score":0.46,"Call":"inactive"}
{"gene":"HSD3B1","TNF reporter robust z-score":1.14,"Call":"inactive"}
{"gene":"EDAR","TNF reporter robust z-score":-0.58,"Call":"inactive"}
{"gene":"EDAR","TNF reporter robust z-score":-0.47,"Call":"inactive"}
{"gene":"EDAR","TNF reporter robust z-score":-1.2,"Call":"inactive"}
{"gene":"EDAR","TNF reporter robust z-score":-0.8,"Call":"inactive"}
{"gene":"H2BC21","TNF reporter robust z-score":-0.57,"Call":"inactive"}
{"gene":"H2BC21","TNF reporter robust z-score":-1.04,"Call":"inactive"}
{"gene":"H2BC21","TNF reporter robust z-score":-0.28,"Call":"inactive"}
{"gene":"ANAPC7","TNF reporter robust z-score":-0.36,"Call":"inactive"}
{"gene":"ANAPC7","TNF reporter robust z-score":-0.22,"Call":"inactive"}
{"gene":"ANAPC7","TNF reporter robust z-score":0.22,"Call":"inactive"}
{"gene":"ANAPC7","TNF reporter robust z-score":-0.57,"Call":"inactive"}
{"gene":"KIF5B","TNF reporter robust z-score":0.4,"Call":"inactive"}
{"gene":"KIF5B","TNF reporter robust z-score":1.14,"Call":"inactive"}
{"gene":"KIF5B","TNF reporter robust z-score":0.56,"Call":"inactive"}
{"gene":"KIF5B","TNF reporter robust z-score":1.51,"Call":"inactive"}
{"gene":"SCN8A","TNF reporter robust z-score":-0.73,"Call":"inactive"}
{"gene":"SCN8A","TNF reporter robust z-score":-0.55,"Call":"inactive"}
{"gene":"SCN8A","TNF reporter robust z-score":1.03,"Call":"inactive"}
{"gene":"SCN8A","TNF reporter robust z-score":1.21,"Call":"inactive"}
{"gene":"MUC16","TNF reporter robust z-score":-1.13,"Call":"inactive"}
{"gene":"MUC16","TNF reporter robust z-score":-0.77,"Call":"inactive"}
{"gene":"MUC16","TNF reporter robust z-score":-1.09,"Call":"inactive"}
{"gene":"MUC16","TNF reporter robust z-score":-0.29,"Call":"inactive"}
{"gene":"ARID5B","TNF reporter robust z-score":-0.19,"Call":"inactive"}
{"gene":"ARID5B","TNF reporter robust z-score":0.5,"Call":"inactive"}
{"gene":"ARID5B","TNF reporter robust z-score":1.49,"Call":"inactive"}
{"gene":"ARID5B","TNF reporter robust z-score":1.1,"Call":"inactive"}
